These are yes or no findings as the source states them, for the method shown.
Tests used:
CD28-Fc = CD28-Fc (Homo sapiens, UniProt P10747); test: condition: approximately 100 μM (start of the dilution series); SPR; Biacore S200, Fc-fusion target on Sensor Chip Protein A, peptide flowed, single-cycle kinetics, three-fold dilution series from approximately 100 μM, 25°C, 30 μl/min, HBS-EP with 5% DMSO; 1:1 binding (kinetic) model, or no binding seen; both purified
CD8α-Fc = molecular target: T1, CD8α-Fc (UniProt P01732 22-182); test: as above
T1 construct: CD8 alpha chain, bought as Fc fusion; captured on a Protein A sensor chip by its Fc; source: bought: R&D, #AVI10927

Sequences of proteins named here, by UniProt entry; tags and fusion partners are left off. Residues count along the entry.
UniProt P10747, residues 19-152: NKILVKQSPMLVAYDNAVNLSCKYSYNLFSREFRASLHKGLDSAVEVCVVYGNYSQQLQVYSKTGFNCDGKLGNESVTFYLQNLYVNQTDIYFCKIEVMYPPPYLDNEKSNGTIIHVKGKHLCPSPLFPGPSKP
UniProt P01732, residues 22-182: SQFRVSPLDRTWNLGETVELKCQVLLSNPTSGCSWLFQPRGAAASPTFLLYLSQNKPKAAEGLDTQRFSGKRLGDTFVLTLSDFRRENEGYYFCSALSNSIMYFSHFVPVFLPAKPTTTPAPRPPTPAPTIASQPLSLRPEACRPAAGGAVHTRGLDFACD

binding (CD28-Fc)	binding (CD8α-Fc)	Binder
no binding	–	PCECEDTTFFIIFNSSEECERLCRKLGVTNCRVHCG [5ji4-CD28-4]
–	no binding	PCECLVTPYKDDYKSSEECERLCRKLGVTNCRVHCG [5ji4-CD8-8]

— paper PMC11611271, “Rapid prediction of key residues for foldability by machine learning model enables the design of highly functional libraries with hyperstable constrained peptide scaffolds” (PLOS Computational Biology, 2024)
